Laboratory results taken from article PMC7397857.
These are yes or no findings as the source states them, for the method shown. In cells and extracts the contact can be indirect. Some entries that bind do so weakly or less than the wild type.

Protein sequences, listed by entry. Tags and fused reporters are not part of them.
UniProt P60468: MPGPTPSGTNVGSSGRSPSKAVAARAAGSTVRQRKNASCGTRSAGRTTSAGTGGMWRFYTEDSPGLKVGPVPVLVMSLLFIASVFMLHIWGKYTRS
UniProt Q9HAU5: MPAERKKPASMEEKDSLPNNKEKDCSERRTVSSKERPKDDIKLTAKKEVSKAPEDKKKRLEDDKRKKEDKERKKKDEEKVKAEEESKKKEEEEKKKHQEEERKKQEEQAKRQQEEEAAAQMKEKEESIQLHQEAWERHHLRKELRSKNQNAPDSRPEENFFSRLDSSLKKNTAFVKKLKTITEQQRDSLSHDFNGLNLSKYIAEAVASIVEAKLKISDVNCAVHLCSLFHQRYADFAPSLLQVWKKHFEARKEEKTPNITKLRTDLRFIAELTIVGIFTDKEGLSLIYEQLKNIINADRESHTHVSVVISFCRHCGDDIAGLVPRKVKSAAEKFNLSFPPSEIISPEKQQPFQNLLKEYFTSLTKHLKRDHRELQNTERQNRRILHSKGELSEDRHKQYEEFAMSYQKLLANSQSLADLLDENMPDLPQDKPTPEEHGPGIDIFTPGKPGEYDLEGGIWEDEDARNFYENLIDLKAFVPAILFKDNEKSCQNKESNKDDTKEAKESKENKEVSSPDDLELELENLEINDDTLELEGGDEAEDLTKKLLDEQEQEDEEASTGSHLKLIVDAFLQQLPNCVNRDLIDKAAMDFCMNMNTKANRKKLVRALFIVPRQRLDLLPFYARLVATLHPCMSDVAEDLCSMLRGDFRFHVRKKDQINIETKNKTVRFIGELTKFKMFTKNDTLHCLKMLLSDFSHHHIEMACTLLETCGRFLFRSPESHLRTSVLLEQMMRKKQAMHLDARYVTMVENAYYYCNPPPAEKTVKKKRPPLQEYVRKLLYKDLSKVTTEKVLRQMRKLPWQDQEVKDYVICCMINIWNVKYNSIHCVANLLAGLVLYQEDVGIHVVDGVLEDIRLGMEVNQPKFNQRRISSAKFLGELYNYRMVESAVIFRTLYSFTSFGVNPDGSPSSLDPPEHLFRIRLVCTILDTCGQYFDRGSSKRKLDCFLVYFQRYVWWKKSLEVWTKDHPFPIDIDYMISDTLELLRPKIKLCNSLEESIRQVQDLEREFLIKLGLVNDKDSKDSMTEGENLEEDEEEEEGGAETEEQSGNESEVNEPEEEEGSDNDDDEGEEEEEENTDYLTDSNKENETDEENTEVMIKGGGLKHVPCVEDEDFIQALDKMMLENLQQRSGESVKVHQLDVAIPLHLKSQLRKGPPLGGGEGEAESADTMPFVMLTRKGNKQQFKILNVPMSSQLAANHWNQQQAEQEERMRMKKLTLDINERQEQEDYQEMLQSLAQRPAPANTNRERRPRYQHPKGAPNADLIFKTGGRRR

How the values were obtained:
[1] = target: SEC61B (human (endogenous in HeLa)) (UniProt P60468); assay: proximity ligation; Duolink PLA on fixed, permeabilised cells with primary antibodies to the two proteins
[2] = target: T1, UPF1 C126S (human) (UniProt Q92900); assay: co-IP; tagged UPF1 (wild type or mutant) cotransfected with T7-NBAS, HeLa cells, in the presence or absence of RNases; source of UPF2 not stated
T1 sequence: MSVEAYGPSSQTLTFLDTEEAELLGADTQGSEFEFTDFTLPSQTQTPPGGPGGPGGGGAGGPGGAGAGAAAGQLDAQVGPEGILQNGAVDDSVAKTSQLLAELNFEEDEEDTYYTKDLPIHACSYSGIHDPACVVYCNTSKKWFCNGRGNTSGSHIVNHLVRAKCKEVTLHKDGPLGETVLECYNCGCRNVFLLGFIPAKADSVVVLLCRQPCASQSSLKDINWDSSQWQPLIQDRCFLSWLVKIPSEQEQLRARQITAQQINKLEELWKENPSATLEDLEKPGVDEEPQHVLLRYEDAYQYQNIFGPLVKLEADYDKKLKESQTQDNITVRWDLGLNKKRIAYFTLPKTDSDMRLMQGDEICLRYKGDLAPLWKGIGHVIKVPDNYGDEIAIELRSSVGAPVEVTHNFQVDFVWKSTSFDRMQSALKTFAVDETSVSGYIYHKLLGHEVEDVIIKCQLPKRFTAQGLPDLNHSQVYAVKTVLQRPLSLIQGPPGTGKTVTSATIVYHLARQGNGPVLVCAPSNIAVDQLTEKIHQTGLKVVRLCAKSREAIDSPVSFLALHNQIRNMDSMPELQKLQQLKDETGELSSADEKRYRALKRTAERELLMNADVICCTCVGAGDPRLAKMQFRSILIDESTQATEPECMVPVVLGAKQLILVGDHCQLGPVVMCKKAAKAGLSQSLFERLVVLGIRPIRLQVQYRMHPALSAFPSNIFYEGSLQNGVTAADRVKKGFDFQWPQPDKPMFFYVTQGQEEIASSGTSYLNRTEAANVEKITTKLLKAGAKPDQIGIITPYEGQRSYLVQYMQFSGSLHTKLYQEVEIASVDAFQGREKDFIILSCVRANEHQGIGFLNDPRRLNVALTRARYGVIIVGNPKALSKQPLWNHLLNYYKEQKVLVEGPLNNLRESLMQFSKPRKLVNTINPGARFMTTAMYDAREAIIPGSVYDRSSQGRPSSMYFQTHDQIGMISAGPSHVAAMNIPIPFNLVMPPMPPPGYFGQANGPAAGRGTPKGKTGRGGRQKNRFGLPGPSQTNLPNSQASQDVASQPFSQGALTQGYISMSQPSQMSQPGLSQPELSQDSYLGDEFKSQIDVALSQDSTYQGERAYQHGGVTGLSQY

UPF2 (from UniProt Q9HAU5 1-1272)
binding [1]: binds weakly | binding [2]: no binding
